According to EP1175509B1 (priority 1999, dated 2000):
The name of at least one read-out is uncertain.

By UniProt entry, the sequences of proteins in these tests, tags left out.
UniProt P81908, whole entry: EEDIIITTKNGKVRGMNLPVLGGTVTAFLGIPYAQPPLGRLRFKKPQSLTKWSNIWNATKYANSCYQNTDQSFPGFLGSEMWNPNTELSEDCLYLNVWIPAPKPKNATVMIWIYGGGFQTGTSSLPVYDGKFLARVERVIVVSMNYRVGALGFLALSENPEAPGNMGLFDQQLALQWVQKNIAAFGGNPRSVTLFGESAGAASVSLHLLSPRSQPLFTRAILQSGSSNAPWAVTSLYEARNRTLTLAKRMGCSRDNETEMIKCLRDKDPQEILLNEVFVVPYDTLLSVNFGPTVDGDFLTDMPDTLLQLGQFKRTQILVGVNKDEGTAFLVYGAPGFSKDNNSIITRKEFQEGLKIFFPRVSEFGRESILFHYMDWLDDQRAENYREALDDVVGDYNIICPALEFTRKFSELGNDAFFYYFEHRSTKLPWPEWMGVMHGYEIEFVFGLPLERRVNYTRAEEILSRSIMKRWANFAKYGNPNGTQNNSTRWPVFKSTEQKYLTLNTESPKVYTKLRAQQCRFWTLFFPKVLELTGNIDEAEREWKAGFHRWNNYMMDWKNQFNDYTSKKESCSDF

Columns and labels:
Type in all cases: biochemical
Settings in all cases: pH 8
FBS-AChE, soluble = target: T1, FBS-AChE, soluble (Bos taurus, UniProt P23795)
T1 sequence (P23795 31-613): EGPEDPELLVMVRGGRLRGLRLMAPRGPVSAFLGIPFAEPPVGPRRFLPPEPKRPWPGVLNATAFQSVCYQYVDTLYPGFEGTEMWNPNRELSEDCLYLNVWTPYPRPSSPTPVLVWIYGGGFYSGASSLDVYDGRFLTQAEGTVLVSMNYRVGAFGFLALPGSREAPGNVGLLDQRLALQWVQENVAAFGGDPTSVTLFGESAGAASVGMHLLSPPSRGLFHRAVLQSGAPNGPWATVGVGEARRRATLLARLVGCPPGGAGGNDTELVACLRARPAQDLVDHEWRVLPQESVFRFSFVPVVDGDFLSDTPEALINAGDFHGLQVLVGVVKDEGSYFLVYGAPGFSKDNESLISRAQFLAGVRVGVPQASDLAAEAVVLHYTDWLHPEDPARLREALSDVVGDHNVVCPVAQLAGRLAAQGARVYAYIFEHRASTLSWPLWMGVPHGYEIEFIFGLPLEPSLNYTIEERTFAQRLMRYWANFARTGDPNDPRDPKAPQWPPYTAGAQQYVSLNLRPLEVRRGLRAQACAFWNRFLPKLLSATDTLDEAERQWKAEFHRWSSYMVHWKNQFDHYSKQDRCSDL

[1] = target: T2, FBS-AChE, immobilized (polyurethane coupled) (Bos taurus, UniProt P23795)
T2 sequence (P23795 31-613): T1 sequence (P23795 31-613)

Equine-BChE, soluble = Equine-BChE, soluble (Equus caballus, UniProt P81908)
[2] = target: Equine-BChE, immobilized (polyurethane coupled) (Equus caballus, UniProt P81908)

Structure (SMILES)	Kcat/Km (FBS-AChE, soluble) [M⁻¹ s⁻¹]	Kcat/Km [1] [M⁻¹ s⁻¹]	Kcat/Km (Equine-BChE, soluble) [M⁻¹ s⁻¹]	Kcat/Km [2] [M⁻¹ s⁻¹]
CC(=O)SCC[N+](C)(C)C.[I-] [acetylthiocholine, Acetylthiocholine iodide]	4.17e+07	900000	–	–
CCCC(=O)SCC[N+](C)(C)C.[I-] [butyrylthiocholine, S-butyrylthiocholine iodide]	–	–	4e+06	250000
